The results in this text go back to patent publication US20210292422A1.

Results are given in words; binding and its absence hold for the method and conditions named. Some entries that bind do so weakly or less than the wild type.

One test has as its target T1, FZD8 (UniProt Q9H461).
T1 sequence (looked up): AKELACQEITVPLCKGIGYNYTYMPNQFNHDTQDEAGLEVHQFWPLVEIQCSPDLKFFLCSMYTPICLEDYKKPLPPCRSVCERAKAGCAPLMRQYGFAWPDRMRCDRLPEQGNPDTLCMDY
The test is described as follows: column 'Specificity (Clone name)' of the component table; method not given there.

For a further test, the target named is T2, Frizzled 5 (Fzd5) (UniProt Q13467).
T2 sequence (looked up): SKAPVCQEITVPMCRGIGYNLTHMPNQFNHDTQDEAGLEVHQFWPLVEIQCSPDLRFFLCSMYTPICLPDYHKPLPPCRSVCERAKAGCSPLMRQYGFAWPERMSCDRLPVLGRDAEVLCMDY
Nature of the test: BLI (Octet), FIG. 15A.

The target in the next test is T3, Frizzled 8 (Fzd8) (UniProt Q9H461).
T3 sequence (looked up): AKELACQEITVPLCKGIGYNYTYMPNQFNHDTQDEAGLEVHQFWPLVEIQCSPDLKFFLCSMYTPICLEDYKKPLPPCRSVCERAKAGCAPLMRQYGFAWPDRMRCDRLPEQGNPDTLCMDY
Nature of the test: BLI (Octet), FIG. 15A. A general note: Biolayer interferometry detects binding as a change in optical thickness at a sensor tip.

B1: F3: antiFZD5, 8 (2919) scFv (scFv)
scFv: EVQLVESGGGLVQPGGSLRLSCAASGFNISYSYIHWVRQAPGKGLEWVASIYSSSGSTSYADSVKGRFTISADTSKNTAYLQMNSLRAEDTAVYYCARGAIDYWGQGTLVTVSSGGGGSGGGGSGGGGSDIQMTQSPSSLSASVGDRVTITCRASQSVSSAVAWYQQKPGKAPKLLIYSASSLYSGVPSRFSGSRSGTDFTLTISSLQPEDFATYYCQQWYSSGHVLITFGQGTKVEIK
B1: the binding entry with FZD8 is “binds”.

B2: F3 (2919) (scFv)
scFv: EVQLVESGGGLVQPGGSLRLSCAASGFNISYSYIHWVRQAPGKGLEWVASIYSSSGSTSYADSVKGRFTISADTSKNTAYLQMNSLRAEDTAVYYCARGAIDYWGQGTLVTVSSGGGGSGGGGSGGGGSDIQMTQSPSSLSASVGDRVTITCRASQSVSSAVAWYQQKPGKAPKLLIYSASSLYSGVPSRFSGSRSGTDFTLTISSLQPEDFATYYCQQWYSSGHVLITFGQGTKVEIK
In the case of B2, the binding entry in the test with Frizzled 5 (Fzd5) and with Frizzled 8 (Fzd8) was “binds” throughout.
